Measurements taken from publication PMC4890305.
Results are given in words; binding and its absence hold for the method and conditions named. In cells and extracts the contact can be indirect. Some binding calls cover weakened binding; strength is not graded here. Sequences can lack the tags named with a protein.

Target: T1, human TRIM31 (tripartite motif), Myc-tagged (human) (UniProt Q9BZY9)
T1 sequence: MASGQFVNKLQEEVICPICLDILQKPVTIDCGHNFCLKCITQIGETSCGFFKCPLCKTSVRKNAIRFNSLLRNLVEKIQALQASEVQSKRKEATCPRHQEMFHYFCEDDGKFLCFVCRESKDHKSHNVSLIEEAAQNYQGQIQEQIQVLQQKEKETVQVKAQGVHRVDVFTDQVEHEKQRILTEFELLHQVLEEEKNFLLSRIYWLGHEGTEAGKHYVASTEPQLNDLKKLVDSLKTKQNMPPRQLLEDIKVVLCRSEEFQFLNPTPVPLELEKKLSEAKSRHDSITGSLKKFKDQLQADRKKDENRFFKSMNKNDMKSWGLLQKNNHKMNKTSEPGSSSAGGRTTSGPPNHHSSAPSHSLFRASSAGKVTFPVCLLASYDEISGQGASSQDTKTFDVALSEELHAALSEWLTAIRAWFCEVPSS
Assay: co-IP; HEK293T cells expressing TRIM31-Myc or HA-NDP52 lysed with 0.5% NP-40 in PBS; immunoprecipitated with anti-Myc antibody and protein G-Sepharose at 4 °C, washed with 0.1% NP-40/PBS; immunoblot with anti-HA antibody

B1: human NDP52, HA-tagged (protein, UniProt Q13137 1-446)
chain: MEETIKDPPTSAVLLDHCHFSQVIFNSVEKFYIPGGDVTCHYTFTQHFIPRRKDWIGIFRVGWKTTREYYTFMWVTLPIDLNNKSAKQQEVQFKAYYLPKDDEYYQFCYVDEDGVVRGASIPFQFRPENEEDILVVTTQGEVEEIEQHNKELCKENQELKDSCISLQKQNSDMQAELQKKQEELETLQSINKKLELKVKEQKDYWETELLQLKEQNQKMSSENEKMGIRVDQLQAQLSTQEKEMEKLVQGDQDKTEQLEQLKKENDHLFLSLTEQRKDQKKLEQTVEQMKQNETTAMKKQQELMDENFDLSKRLSENEIICNALQRQKERLEGENDLLKRENSRLLSYMGLDFNSLPYQVPTSDEGGARQNPGLAYGNPYSGIQESSSPSPLSIKKCPICKADDICDHTLEQQQMQPLCFNCPICDKIFPATEKQIFEDHVFCHSL
B1 was tested, and the binding was “binds”.
